Data from publication PMC6486636.
Weaker means in comparison with the reference protein, sequence or condition of that experiment. For some of these results: For at least one entry, the source does not settle the construct or the ends of the probe. For some of these results: At least one verdict was read from the data and is not stated in words by the source.

By UniProt entry, the sequences of proteins in these tests, tags left out. Chains listed by the source or under a name are the forms on record and can include a tag or linker. Residues count along the entry.
UniProt Q71RC2, 95-287: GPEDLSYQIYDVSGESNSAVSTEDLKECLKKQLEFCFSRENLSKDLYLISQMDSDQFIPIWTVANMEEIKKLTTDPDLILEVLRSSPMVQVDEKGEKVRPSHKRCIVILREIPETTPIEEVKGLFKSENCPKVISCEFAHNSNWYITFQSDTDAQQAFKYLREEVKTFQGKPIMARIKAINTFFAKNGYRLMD
UniProt Q71RC2, 1-287 W22F: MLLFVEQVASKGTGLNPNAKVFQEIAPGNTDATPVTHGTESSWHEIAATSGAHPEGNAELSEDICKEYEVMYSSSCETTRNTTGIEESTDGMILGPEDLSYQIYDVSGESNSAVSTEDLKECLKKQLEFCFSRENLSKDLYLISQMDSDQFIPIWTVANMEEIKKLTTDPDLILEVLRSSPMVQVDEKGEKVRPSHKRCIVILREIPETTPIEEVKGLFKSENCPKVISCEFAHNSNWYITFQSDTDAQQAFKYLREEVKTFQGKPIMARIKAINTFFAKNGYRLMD
UniProt Q71RC2, other isoform, or with tags, fused parts or gaps, stated change not applied: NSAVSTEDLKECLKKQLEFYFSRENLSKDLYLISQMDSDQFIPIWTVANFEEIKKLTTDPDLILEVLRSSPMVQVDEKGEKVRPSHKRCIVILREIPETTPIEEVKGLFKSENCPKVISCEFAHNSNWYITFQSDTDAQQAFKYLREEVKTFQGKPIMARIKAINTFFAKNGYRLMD
UniProt Q71RC2, 111-287: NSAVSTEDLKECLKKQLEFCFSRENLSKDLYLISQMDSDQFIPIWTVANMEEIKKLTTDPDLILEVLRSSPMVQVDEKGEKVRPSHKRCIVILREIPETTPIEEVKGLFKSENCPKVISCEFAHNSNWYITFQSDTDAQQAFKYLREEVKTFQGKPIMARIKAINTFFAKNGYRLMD
UniProt Q71RC2, 79-287: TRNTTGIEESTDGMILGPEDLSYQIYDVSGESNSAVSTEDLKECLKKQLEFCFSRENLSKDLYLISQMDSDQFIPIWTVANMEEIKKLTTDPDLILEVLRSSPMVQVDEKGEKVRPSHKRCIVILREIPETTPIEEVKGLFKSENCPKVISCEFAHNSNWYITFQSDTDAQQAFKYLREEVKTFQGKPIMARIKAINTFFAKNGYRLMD
UniProt Q71RC2, 50-287: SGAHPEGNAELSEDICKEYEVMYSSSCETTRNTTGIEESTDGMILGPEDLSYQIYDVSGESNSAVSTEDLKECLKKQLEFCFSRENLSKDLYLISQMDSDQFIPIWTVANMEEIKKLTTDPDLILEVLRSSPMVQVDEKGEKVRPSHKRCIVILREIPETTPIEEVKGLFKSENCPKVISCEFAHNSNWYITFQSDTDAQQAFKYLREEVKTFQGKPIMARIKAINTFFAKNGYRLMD
UniProt Q71RC2, other isoform, or with tags, fused parts or gaps: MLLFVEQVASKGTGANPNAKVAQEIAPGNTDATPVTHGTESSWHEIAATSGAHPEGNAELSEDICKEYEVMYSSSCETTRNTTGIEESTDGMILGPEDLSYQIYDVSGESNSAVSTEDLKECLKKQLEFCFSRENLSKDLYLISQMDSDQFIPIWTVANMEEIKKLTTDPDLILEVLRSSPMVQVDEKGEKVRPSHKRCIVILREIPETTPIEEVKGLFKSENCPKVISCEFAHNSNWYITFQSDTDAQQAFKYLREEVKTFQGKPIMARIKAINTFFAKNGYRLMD
UniProt Q71RC2, 24-287: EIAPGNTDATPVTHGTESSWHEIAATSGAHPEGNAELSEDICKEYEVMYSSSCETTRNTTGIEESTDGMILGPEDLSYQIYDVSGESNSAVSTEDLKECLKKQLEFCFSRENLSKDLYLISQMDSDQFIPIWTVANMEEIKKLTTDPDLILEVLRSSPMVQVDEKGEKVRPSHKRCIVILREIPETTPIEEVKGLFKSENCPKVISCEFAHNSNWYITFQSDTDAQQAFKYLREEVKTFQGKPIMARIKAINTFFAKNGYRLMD
UniProt Q71RC2, 196-287: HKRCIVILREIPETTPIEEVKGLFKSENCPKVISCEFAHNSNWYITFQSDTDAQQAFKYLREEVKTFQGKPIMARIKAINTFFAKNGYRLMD
UniProt Q71RC2, 1-287 W22A: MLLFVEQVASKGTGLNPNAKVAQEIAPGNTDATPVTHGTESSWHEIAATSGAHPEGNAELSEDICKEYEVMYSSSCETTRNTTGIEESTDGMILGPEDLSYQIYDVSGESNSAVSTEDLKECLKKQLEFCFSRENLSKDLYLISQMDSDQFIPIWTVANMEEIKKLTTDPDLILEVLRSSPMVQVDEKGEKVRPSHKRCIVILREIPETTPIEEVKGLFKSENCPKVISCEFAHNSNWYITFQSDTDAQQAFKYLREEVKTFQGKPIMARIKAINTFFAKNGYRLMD
UniProt Q71RC2, 1-287 L15A: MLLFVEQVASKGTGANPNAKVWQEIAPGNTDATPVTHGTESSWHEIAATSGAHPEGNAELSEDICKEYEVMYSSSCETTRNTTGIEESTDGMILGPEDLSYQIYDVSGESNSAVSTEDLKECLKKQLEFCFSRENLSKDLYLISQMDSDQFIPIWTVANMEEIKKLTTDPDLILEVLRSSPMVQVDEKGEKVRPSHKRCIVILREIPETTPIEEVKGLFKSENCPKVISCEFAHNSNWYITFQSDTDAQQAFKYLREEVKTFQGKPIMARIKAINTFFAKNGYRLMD

Key:
[1] = molecular target: LARP4A 95-287 (Homo sapiens) (UniProt Q71RC2); assay: EMSA; settings: with competitor tRNA; EMSA: 20 mM Tris pH 7.25, 200 mM KCl, 5% glycerol, 1 mM DTT, 0.1 mg/ml BSA, 0.01 mg/ml E. coli tRNA, on ice, gel at 4 C; recombinant protein; residues 95-287; protein details: His tag, TEV-cleaved; label: 5' 32P (EMSA), unlabelled (NMR, native MS)
[2] = molecular target: LARP4A NTD W22F (Homo sapiens) (UniProt Q71RC2); assay: EMSA; settings: low affinity, Kd only in figure; EMSA: 20 mM Tris pH 7.25, 200 mM KCl, 5% glycerol, 1 mM DTT, 0.1 mg/ml BSA, 0.01 mg/ml E. coli tRNA, on ice, gel at 4 C; recombinant protein; residues 1-287; protein details: His tag, TEV-cleaved; label: 5' 32P (EMSA), unlabelled (NMR, native MS)
[3] = molecular target: LARP4A La module C130YM160F (Homo sapiens) (UniProt Q71RC2); assay: EMSA; settings: no tighter than wild-type La module; EMSA: 20 mM Tris pH 7.25, 200 mM KCl, 5% glycerol, 1 mM DTT, 0.1 mg/ml BSA, 0.01 mg/ml E. coli tRNA, on ice, gel at 4 C; recombinant protein; residues 111-287; label: 5' 32P (EMSA), unlabelled (NMR, native MS)
[4] = molecular target: LARP4A La module (Homo sapiens) (UniProt Q71RC2); assay: EMSA; settings: EMSA: 20 mM Tris pH 7.25, 200 mM KCl, 5% glycerol, 1 mM DTT, 0.1 mg/ml BSA, 0.01 mg/ml E. coli tRNA, on ice, gel at 4 C, recombinant protein, residues 111-287, protein details: His tag, TEV-cleaved, label: 5' 32P (EMSA), unlabelled (NMR, native MS)
[5] = molecular target: LARP4A 79-287 (Homo sapiens) (UniProt Q71RC2); assay: EMSA; settings: with competitor tRNA; EMSA: 20 mM Tris pH 7.25, 200 mM KCl, 5% glycerol, 1 mM DTT, 0.1 mg/ml BSA, 0.01 mg/ml E. coli tRNA, on ice, gel at 4 C; recombinant protein; residues 79-287; protein details: His tag, TEV-cleaved; label: 5' 32P (EMSA), unlabelled (NMR, native MS)
[6] = molecular target: LARP4A 50-287 (Homo sapiens) (UniProt Q71RC2); assay: EMSA; settings: with competitor tRNA; EMSA: 20 mM Tris pH 7.25, 200 mM KCl, 5% glycerol, 1 mM DTT, 0.1 mg/ml BSA, 0.01 mg/ml E. coli tRNA, on ice, gel at 4 C; recombinant protein; residues 50-287; protein details: His tag, TEV-cleaved; label: 5' 32P (EMSA), unlabelled (NMR, native MS)
[7] = molecular target: LARP4A NTD L15AW22A (Homo sapiens) (UniProt Q71RC2); assay: EMSA; settings: severely impaired, Kd only in figure; EMSA: 20 mM Tris pH 7.25, 200 mM KCl, 5% glycerol, 1 mM DTT, 0.1 mg/ml BSA, 0.01 mg/ml E. coli tRNA, on ice, gel at 4 C; recombinant protein; residues 1-287; protein details: His tag, TEV-cleaved; label: 5' 32P (EMSA), unlabelled (NMR, native MS)
[8] = molecular target: LARP4A 24-287 (Homo sapiens) (UniProt Q71RC2); assay: EMSA; settings: with competitor tRNA; EMSA: 20 mM Tris pH 7.25, 200 mM KCl, 5% glycerol, 1 mM DTT, 0.1 mg/ml BSA, 0.01 mg/ml E. coli tRNA, on ice, gel at 4 C; recombinant protein; residues 24-287; protein details: His tag, TEV-cleaved; label: 5' 32P (EMSA), unlabelled (NMR, native MS)
[9] = molecular target: LARP4A RRM1 (Homo sapiens) (UniProt Q71RC2); assay: EMSA; settings: similar affinity to La module; EMSA: 20 mM Tris pH 7.25, 200 mM KCl, 5% glycerol, 1 mM DTT, 0.1 mg/ml BSA, 0.01 mg/ml E. coli tRNA, on ice, gel at 4 C; recombinant protein; residues 196-287; protein details: His tag, TEV-cleaved; label: 5' 32P (EMSA), unlabelled (NMR, native MS)
[10] = molecular target: LARP4A NTD W22A (Homo sapiens) (UniProt Q71RC2); assay: EMSA; settings: FAM-oligoA20; EMSA: 20 mM Tris pH 7.25, 200 mM KCl, 5% glycerol, 1 mM DTT, 0.1 mg/ml BSA, 0.01 mg/ml E. coli tRNA, on ice, gel at 4 C; recombinant protein; residues 1-287; protein details: His tag, TEV-cleaved; label: 5' fluorescein (FAM)
[11] = molecular target: LARP4A NTD L15A (Homo sapiens) (UniProt Q71RC2); assay: EMSA; settings: FAM-oligoA20; EMSA: 20 mM Tris pH 7.25, 200 mM KCl, 5% glycerol, 1 mM DTT, 0.1 mg/ml BSA, 0.01 mg/ml E. coli tRNA, on ice, gel at 4 C; recombinant protein; residues 1-287; protein details: His tag, TEV-cleaved; label: 5' fluorescein (FAM)
[12] = molecular target: LARP4A La module (Homo sapiens) (UniProt Q71RC2); assay: MST; settings: 25 C, agrees with EMSA, Kd only in figure; MST: 20 mM Tris pH 7.25, 100 mM KCl, 0.2 mM EDTA, 1 mM DTT, 0.05% Tween-20, 25 C; recombinant protein; residues 111-287; protein details: His tag, TEV-cleaved; label: 5' fluorescein (FAM)

Measured: binding result

AAAAAAAAAAAAAAA [oligoA15]
binds more weakly: [1] | [2] | [3] | [4]; no competitor tRNA, too weak to quantify | [4]; with competitor tRNA | [5] | [6] | [7] | [8] | [9]

AAAAAAAAAAAAAAAAAAAA [5'FAM-oligoA20]
binds more weakly: [10] | [11] | [12]
